Test results taken from US7838676B2, “Beta-secretase modulators and methods of use” (Amgen Inc., priority 2005, dated 2010).
Some of these results come from one statement about several compounds together. For some of these results: At least one structure is not confirmed: it was looked up by name or label, or the drawing left a doubt.

Amino acid sequences for entries named in this document (tags omitted). Residues count along the entry.
UniProt P56817, 46-501, species assumed: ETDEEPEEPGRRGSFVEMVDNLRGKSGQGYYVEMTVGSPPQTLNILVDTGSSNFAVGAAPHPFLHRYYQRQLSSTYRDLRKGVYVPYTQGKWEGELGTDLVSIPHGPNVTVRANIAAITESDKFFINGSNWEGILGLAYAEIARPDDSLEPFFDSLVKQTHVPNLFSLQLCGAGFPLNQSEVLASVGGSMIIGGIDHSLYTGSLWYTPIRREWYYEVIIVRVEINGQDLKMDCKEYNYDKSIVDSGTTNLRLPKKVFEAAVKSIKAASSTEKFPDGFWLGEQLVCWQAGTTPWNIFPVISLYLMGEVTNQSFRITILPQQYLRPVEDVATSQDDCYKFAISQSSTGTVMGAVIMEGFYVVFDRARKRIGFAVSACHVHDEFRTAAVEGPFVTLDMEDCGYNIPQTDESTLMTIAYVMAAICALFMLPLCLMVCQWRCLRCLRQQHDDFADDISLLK

Columns and labels:
[1] = molecular target: BACE (Homo sapiens, UniProt P56817); experiment: In Vitro Enzymatic BACE FRET (Fluorescence Resonance Energy Transfer) Assay; type: biochemical; details: enzyme 0.2 nM, FRET substrate 50 nM, pH 4.2
[2] = system: Aβ40 in conditioned medium of APP containing cells; experiment: BACE Cell-Based Assay (Aβ40 sandwich ELISA, HEK-293 cells stably expressing APP); details: inhibition of Aβ 40 in conditioned media after 24 h
Description: The cell-based assay measures inhibition or reduction of Aβ40 in conditioned medium of test compound treated APP containing cells.
Cells stably expressing Amyloid Precursor Protein (APP) were plated at a density of 40K cells/well in 96 well plates (Costar). The cells were cultivated for 24 h at 37° C. and 5% CO2 in DMEM supplemented with 10% FBS. The test compounds were then added to cells in 10-point dose response concentrations with the starting concentration being either 100 μM or 10 μM. The compounds were diluted from stock solutions in DMSO and the final DMSO concentration of the test compounds on cells was 0.1%. After 24 h of incubation with the test compounds the supernatant conditioned media was collected and the Aβ 40 levels were determined using a sandwich ELISA. The IC50 of the compound was calculated from the percent of control or percent inhibition of Aβ 40 as a function of the concentration of the test compound. […]
Cellular supernatants were incubated with the capture antibody for 3 h at 4° C., followed by 3 wash steps in TBS-tween (0.05%). […] The final readout of the ELISA is Time-Resolved Fluorescence (counts per minute) using Delfia reagents Streptavidin-Europium and Enhancement solutions (Perkin Elmer) and the Victor 2 multilabel counter (Perkin Elmer).

Compound	IC50 [1] [µM]	IC50 [2] [µM]
1-acetylpyrrolidin-2-yl)-N-((2S,3R)-4-((S)-6-ethyl-2,2-spirocyclobutylchroman-4-ylamino)-3-hydroxy-1-phenylbutan-2-yl)-6-pentylisonicotinamide [Example 159]	≤ 5	≤ 5
CCc1ccc2c(c1)[C@@H](NC[C@@H](O)[C@H](Cc1ccccc1)NC(=O)c1ccoc1)CC1(CCC1)O2 [Example 158, N-((2S,3R)-4-((S)-6-ethyl-2,2-spirocyclobutylchroman-4-ylamino)-3-hydroxy-1-phenylbutan-2-yl)furan-3-carboxamide]	≤ 5	
CCc1ccc2c(c1)[C@@H](NC[C@@H](O)[C@H](Cc1ccccc1)NC(=O)c1cc(-c3ccsc3)nc(C3CCCC3)c1)CC1(CCCC1)O2 [Example 152, 2-cyclopentyl-N-((2S,3R)-4-((S)-6-ethyl-2,2-spirocyclopentylchroman-4-ylamino)-3-hydroxy-1-phenylbutan-2-yl)-6-(thiophen-3-yl) isonicotinamide]	≤ 5	
CCc1ccc2c(c1)[C@@H](NC[C@@H](O)[C@H](Cc1cccc(C#N)c1)NC(=O)c1ccno1)CC1(CCC1)O2 [Example 27, N-((1S,2R)-1-((3-cyanophenyl)methyl)-3-(((4S)-6-ethyl-3,4-dihydrospiro[chromene-2,1′-cyclobutan]-4-yl)amino)-2-hydroxypropyl)-5-isoxazolecarboxamide]	≤ 5	
CCc1ccc2c(c1)[C@@H](NC[C@@H](O)[C@H](Cc1ccccc1)NC(=O)c1cc(Cl)nc(N3CCCC3)c1)CC1(CCCC1)O2 [Example 199, 2-chloro-N-((2S,3R)-4-((S)-6-ethyl-2,2-spirocyclopentylchroman-4-ylamino)-3-hydroxy-1-phenylbutan-2-yl)-6-(pyrrolidin-1-yl)isonicotinamide]	≤ 5	
Cc1cc(C(=O)N[C@@H](Cc2ccccc2)[C@H](O)CN[C@H]2CC3(CCC3)Oc3ccc(Br)cc32)n(C)n1 [Example 161, N-((1S,2R)-3-(((4S)-6-bromo-3,4-dihydrospiro[chromene-2,1′-cyclobutan]-4-yl)amino)-2-hydroxy-1-(phenylmethyl)propyl)-1,3-dimethyl-1H-pyrazole-5-carboxamide]	≤ 5	
C[C@H](c1ccccc1)n1cnc2ccc(C(=O)N[C@@H](Cc3ccccc3)[C@H](O)CN[C@H]3CC4(CCC4)Oc4ncc(CC(C)(C)C)cc43)cc21 [Example 53, N-((1S,2R)-3-(((4′S)-6′-(2,2-dimethylpropyl)-3′,4′-dihydrospiro[cyclobutane-1,2′-pyrano[2,3-b]pyridin]-4′-yl)amino)-2-hydroxy-1-(phenylmethyl)propyl)-1-((1R)-1-phenylethyl)-1H-benzimidazole-6-carboxamide]	≤ 5	
CC(C)(C)Cc1cnc2c(c1)[C@@H](NC[C@@H](O)[C@H](Cc1ccccc1)NC(=O)c1ccc3ncn(Cc4ccccc4)c3c1)CC1(CCC1)O2 [Example 54, N-((1S,2R)-3-(((4′S)-6′-(2,2-dimethylpropyl)-3′,4′-dihydrospiro[cyclobutane-1,2′-pyrano[2,3-b]pyridin]-4′-yl)amino)-2-hydroxy-1-(phenylmethyl)propyl)-1-(phenylmethyl)-1H-benzimidazole-6-carboxamide]	≤ 5	
O=C(N[C@@H](Cc1ccccc1)[C@H](O)CN[C@H]1CC2(CCC2)Oc2cnccc21)c1ccc(F)c(N2CCCC2=O)c1 [Example 93, N-((1S,2R)-3-((4′S)-3′,4′-dihydrospiro[cyclobutane-1,2′-pyrano[2,3-c]pyridin]-4′-ylamino)-2-hydroxy-1-(phenylmethyl)propyl)-4-fluoro-3-(2-oxo-1-pyrrolidinyl)benzamide]	≤ 5	
